The results are deposited in PubChem (AID1956; SRMLSC, 2009).

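Primary-screen measure of how much each molecule boosts herpes simplex virus growth in host cells, as a fold value. Fold increase in HSV replication; higher values mean stronger enhancement of virus growth.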

Common to all entries: measured here: primary screen fold increase 10 uM; at 10 µM. Part of the compounds only, not a random draw; the main read-out is not listed here.

Result for CN1/C(=C\C=C2/SC(=S)N(CC(=O)O)C2=O)C(C)(C)c2ccccc21 was fold increase 9.32.
Result for Cc1c(N=Cc2cc(Br)cc(Br)c2O)cccc1C(=O)O was fold increase 1.36.
Result for Cn1c(NN)nc2sc3c(c2c1=O)CCC3 was fold increase 1.273.
Result for S=C(Nc1ccc(Oc2ccccc2)cc1)NC1CCCCC1 was fold increase 1.25.
Result for CN(C)c1ccc(N/C=C/C(=O)C(C)(C)C)cc1 was fold increase 1.227.
Result for CCC(C)C(NC(=O)c1ccccc1NC(=O)c1ccco1)C(=O)NC1CCCCC1 (centres unmarked) was fold increase 1.16.
Result for O=C(/C=C/c1ccc2ccccc2n1)c1cc(Cl)ccc1O was fold increase 1.32.
Result for O=C(Nc1nc(-c2ccccn2)cs1)c1cccc(-n2cnnn2)c1 was fold increase 1.33.
Result for Nc1ccc2nc3c(=O)n(CCc4ccccc4)c(=O)[nH]c3nc2c1 was fold increase 8.34.
Result for CCOC(=O)C1CCN(c2nc3ccccc3nc2C(C#N)C(=O)OC(C)C)CC1 (centres unmarked) was fold increase 2.49.
Result for Cc1cc(/C=C2/C(=O)N(C)C(=S)N2C)ccc1N1CCCC1 was fold increase 4.
Result for CCOc1ccc(C(=O)Nc2cccc(-c3cc4ccccc4oc3=O)c2)cc1[N+](=O)[O-] was fold increase 1.16.
Result for CCN1C(=O)/C(=C/C=C2/Sc3ccccc3N2CCO)SC1=S was fold increase 1.45.
Result for O=C(OCCN1C(=O)c2cccc3c(N4CCOCC4)ccc(c23)C1=O)c1ccccc1Cl was fold increase 6.46.
Result for CCOC1=C/C(=C/c2c(N)n3nc(S(=O)(=O)CC)sc3nc2=O)C=CC1=O was fold increase 5.56.
Result for C=CCn1c(=N)n(CC(O)c2ccco2)c2ccccc21 (centres unmarked) was fold increase 1.33.
Result for c1ccc(Cn2c(-c3ccco3)nc3nc4ccccc4nc32)cc1 was fold increase 1.697.
Result for CC(=O)Oc1ccc(OC(C)=O)c(SCCCCCN2CCOCC2)c1 was fold increase 1.38.
Result for c1ccc(-c2cnn3c(-c4ccccc4)c(-c4ccccc4)nc3n2)cc1 was fold increase 3.44.
Result for S=C1NCCc2ccc(Cl)cc2C1c1ccccc1Cl (centres unmarked) was fold increase 1.513.
Result for Cc1cc[n+](-c2[nH]c(=O)sc2/C=N/N=C(\[O-])c2ccccc2)cc1C was fold increase 1.36.
Result for CC(=O)Nc1ccc(Nc2c3c4c(cccc4n(C)c2=O)C(=O)c2ccccc2-3)cc1 was fold increase 1.33.
Result for O=C(c1ccc(NS(=O)(=O)c2ccc3c(c2)OCCO3)cc1)N1CCCCC1 was fold increase 1.32.
Result for Oc1ccc(Br)cc1C=Nc1ccc2c3c(cccc13)CC2 was fold increase 2.35.
Result for CCCN1CCC2(CC1)C(C#N)=C(N)Oc1c2sc2nc(C)cc(C)c12 was fold increase 2.
Result for Cc1cc2ccccc2n1CCNC(=O)Cc1ccccc1 was fold increase 1.37.
Result for FC(F)(F)c1nc2cc3nc4ccccc4[nH]c3cc2n1 was fold increase 1.85.
Result for CCCCCCCCOc1ccc(C2OC34CCCCC3C(C#N)(C#N)C2(C#N)C(=N)O4)cc1 (centres unmarked) was fold increase 1.37.
Result for CC(C)(C)c1ccc(OCC(=O)Nc2ccc3c4c(cccc24)C(=O)NC3=O)cc1 was fold increase 5.57.
Result for CCCN1CCc2c(sc(NC(=S)NC(=O)c3ccccc3)c2C#N)C1 was fold increase 2.3.
Result for COC(=O)c1cc(C(=O)c2cc(F)ccc2O)cn2c(=O)c3c(C)c(C)sc3nc12 was fold increase 1.89.
Result for Cc1c(S(=O)(=O)c2ccccn2)c(N)n(Cc2cccc(Cl)c2)c1C was fold increase 1.4.
Result for COC(=O)CN1C(=S)N(c2ccc(OC)cc2)C(=O)/C1=C/c1ccc(N2CCOCC2)cc1 was fold increase 2.46.